Reference: article PMC10148881, “Recognition of an Ala-rich C-degron by the E3 ligase Pirh2” (Nature Communications, 2023)
These are yes or no findings as the source states them, for the method shown.

By UniProt entry, the sequences of proteins in these tests, tags left out. Where a name states a change or a piece, a line headed by the entry shows the natural chain unless it says otherwise.
UniProt Q96PM5: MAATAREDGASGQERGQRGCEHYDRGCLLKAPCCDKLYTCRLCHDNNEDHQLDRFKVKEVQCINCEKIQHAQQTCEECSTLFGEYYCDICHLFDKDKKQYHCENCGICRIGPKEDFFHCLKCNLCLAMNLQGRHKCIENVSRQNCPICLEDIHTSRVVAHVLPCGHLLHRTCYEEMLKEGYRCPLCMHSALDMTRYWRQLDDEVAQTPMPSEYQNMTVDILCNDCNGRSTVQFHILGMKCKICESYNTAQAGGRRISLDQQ

Experiments:
Experiment in all cases: condition: peptide 0.6–1.0 mM titrated into 180–220 μM protein; ITC; peptides (0.6–1.0 mM) titrated into the cell with 180–220 μM protein at 16 °C; 20 mM Tris-HCl pH 7.5, 150 mM NaCl, 10 μM Zn2+; one-site binding model; both purified
Pirh2 R109A (human) = Pirh2 R109A (human) (UniProt Q96PM5)
Pirh2 R41A (human) = Pirh2 R41A (human) (UniProt Q96PM5)
Pirh2 Y23A (human) = Pirh2 Y23A (human) (UniProt Q96PM5)

Measured: binding

YKTSAAAAAA [Ala6/C-degron peptide (sequence: …)]
no binding: Pirh2 R109A (human) | Pirh2 R41A (human) | Pirh2 Y23A (human)
